Assay results reported in PubChem BioAssay AID504467 (National Center for Advancing Translational Sciences (NCATS), 2011).
The campaign covered roughly 330,000 compounds. About 7,700 (2.3%) were called active. Inconclusive results, whose numbers are uncertain, are shown with a selection of clear calls. Calls follow the shape of the dose curve; as a rule, active = well fitted inhibition curve with a large enough effect; inconclusive = small, poorly fitted or top-dose-only effect, or effect the other way; inactive = flat fitted curve, though single readings scatter. Where the call is inconclusive, the potency comes from a doubtful curve fit.

Experiment: qHTS screen for small molecules that inhibit ELG1-dependent DNA repair in human embryonic kidney (HEK293T) cells expressing luciferase-tagged ELG1; also: nearly all actives have a fitted effect of over 55% in size
Settings: HEK293T ELG1-luciferase reporter, luminescence, 16 h, DNA damage induced by 5-fluorouridine; activity change, negative = inhibition: at 46.1 µM (top of the series)
How it was run: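 Overnight (16 hr) co-exposure of 2,000 cells/well to 5-fluorouridine and compound at 37 °C preceded detection. Luciferase was quantified via ONE-Glo luminescence; loss of signal denotes inhibition.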
% is scaled to controls: 0 for no effect and ±100 for the full control effect; potency is read from the fitted curve at half-maximal effect.

Row | SMILES | Potency | activity change, negative = inhibition
1 | CCn1c(SCc2ccc(C(=O)OC)o2)nnc1-c1c[nH]c2ccccc12 | inconclusive: 18.4 µM [inhibitor, partial curve] | –
2 | S=C(N/N=C/c1ccc(Cl)cc1)N1CCOCC1 | inconclusive: 29.1 µM [activator, single point] | –
3 | CN(C)S(=O)(=O)c1cc(NC(=O)COC(=O)CC2CC3CCC2C3)ccc1Cl (stereo not drawn) | inconclusive: 4.61 µM [activator, partial curve] | –
4 | O=C(NCc1ccco1)c1noc2c1CCCC2 | inconclusive: 2.31 µM [activator, full curve, poor fit] | –
5 | COC(=O)c1ccccc1Oc1c(F)c(F)nc(N2CCOCC2)c1F | inconclusive: 14.6 µM [activator, partial curve, poor fit] | –
6 | COc1cccc(Nc2c(F)c(F)c(F)c(F)c2C(=O)O)c1 | inconclusive: 25.9 µM [activator, single point] | –
7 | CC1CCc2sc(C(=O)N=Nc3c(O)[nH]c4ccccc34)cc2C1 (stereo not drawn) | inconclusive: 29.1 µM [activator, single point] | –
8 | COc1ccc(NC(=O)NCc2ccccn2)c(OC)c1 | – | inactive: -6.6%
9 | O=C(C1CC1)N1CCN(c2nc3ccccc3s2)CC1 | inconclusive: 4.11 µM [activator, full curve] | –
10 | COCCCNC(=O)C1CCN(C(=O)c2cc3sccc3n2Cc2ccc(F)cc2)CC1 | inconclusive: 23.1 µM [inhibitor, partial curve] | –
11 | Cc1ccc(N2CC(O)=C(c3ccccc3)C2=N)cc1 | – | inactive: 7.21%
12 | Nc1nnc(SCc2ccc(Cl)cc2)s1 | inconclusive: 25.9 µM [activator, single point] | –
13 | CCc1nnc(NC(=O)c2ccc(S(=O)(=O)N(C)Cc3ccccc3)cc2)o1 | – | inactive: -4.08%
14 | O=C(CSCc1ccc(Cl)cc1)N1CCCCC1 | inconclusive: 23.1 µM [activator, partial curve] | –
15 | OCCC1CN(Cc2nc(-c3ccc(F)cc3)cs2)CCN1CCc1ccccc1 (stereo not drawn) | inconclusive: 8.2 µM [inhibitor, partial curve, poor fit] | –
16 | C/C(=N\N1CCN(Cc2ccc(Cl)cc2)CC1)c1ccc([N+](=O)[O-])cc1 | active: 16.4 µM | –
17 | Cc1ccc(-c2noc(CNc3ccccc3)n2)cc1 | inconclusive: 20.6 µM [activator, partial curve] | –
18 | CC(C)N=C(NC#N)SCc1ccccc1F | – | inactive: 1.38%
19 | COC(=O)/C(=C1/Oc2ccc(C)cc2S1)C(F)(F)F | inconclusive: 20.6 µM [activator, single point] | –
20 | Cn1cccc1C(=O)NCC1COc2ccccc2O1 (stereo not drawn) | inconclusive: 18.3 µM [activator, partial curve] | –
21 | COc1ccccc1C1CC(c2cccs2)=Nc2ccccc2S1 (stereo not drawn) | inconclusive: 20.6 µM [activator, partial curve] | –
22 | O=C(CSc1nnc2c(n1)[nH]c1ccccc12)NC1CCCCC1 | inconclusive: 4.11 µM [inhibitor, partial curve, poor fit] | –
23 | O=C(COc1ccc(Br)cc1Br)NNC(=O)c1cccs1 | inconclusive: 18.3 µM [activator, partial curve] | –

Row | SMILES | Potency | activity change, negative = inhibition
24 | COc1ccc(C2OC(=O)CC2C(=O)NCc2ccc(Cl)cc2)cc1OC (stereo not drawn) | inconclusive: 20.6 µM [activator, partial curve] | –
25 | COC(=O)Cc1ccc2oc(-c3cccnc3)nc2c1 | inconclusive: 18.3 µM [activator, partial curve] | –
26 | NS(=O)(=O)c1ccc(CCNC(=O)c2cc3ccccc3s2)cc1 | inconclusive: 29.1 µM [activator, single point] | –
27 | CC12CC(NC(=O)N1c1cccc(C(=O)N3CCN(c4ccccc4F)CC3)c1)c1ccccc1O2 (stereo not drawn) | inconclusive: 23.1 µM [inhibitor, partial curve] | –
28 | CC(C)(C)NC(=O)NC(=O)CSc1nnc2ccccn12 | inconclusive: 23.1 µM [activator, single point] | –
29 | O=C(CCN1CCN(c2ccccc2)CC1)c1ccc(Br)cc1 | – | inactive: 7.91%
30 | CCc1ccccc1NC(=O)CN1CCN(C(=O)CNC(=O)Cc2cccc3ccccc23)CC1 | inconclusive: 20.6 µM [inhibitor, single point] | –
31 | c1ccc(Oc2ccc(-c3ccnc4ncnn34)cc2)cc1 | inconclusive: 18.3 µM [activator, partial curve, poor fit] | –
32 | CC(C)(C)N1C(=O)c2ccc(C(=O)Nc3nccs3)cc2C1=O | inconclusive: 3.16 µM [activator, full curve] | –
33 | Cc1ccc(S(=O)(=O)Oc2ccc(/C=C(/NC(=O)c3ccccc3)C(=O)NCCC(=O)O)cc2)cc1 | inconclusive: 23.1 µM [activator, partial curve, poor fit] | –
34 | C=CCSc1nc(N)c(C#N)c(-c2ccccc2)c1C#N | inconclusive: 2.59 µM [activator, partial curve, poor fit] | –
35 | O=C(NCCCN1CCCCC1)c1ccc2c(c1)NC(=O)C(N1CCOCC1)S2 (stereo not drawn) | inconclusive: 32.6 µM [activator, partial curve, poor fit] | –
36 | NC(=O)CCn1ccc2ccccc21 | – | inactive: 3.49%
37 | Cc1ccc(S(=O)(=O)N(CC(=O)NCc2ccncc2)C2CCCCC2)cc1 | – | inactive: 0.131%
38 | CC(C)NC(=O)c1ccc2c(=O)n(C3CCCC3)c(=S)[nH]c2c1 | – | inactive: -12.4%
39 | O=C(CN1CCOCC1)OCCCC1CCCCC1 | inconclusive: 18.4 µM [activator, single point] | –
40 | CSCCC(NC(=O)c1ccccc1)C(=O)N1CC=C(c2ccccc2)CC1 (stereo not drawn) | inconclusive: 25.9 µM [inhibitor, single point] | –
41 | Cc1ccc(C(C)C)c(OCCNC(=O)c2cncc(Br)c2)c1 | inconclusive: 20.6 µM [inhibitor, partial curve, poor fit] | –
42 | CCC1CN(S(=O)(=O)c2cc(-c3cc(C)no3)ccc2OC)c2cc(C)ccc2O1 (stereo not drawn) | inconclusive: 23.1 µM [inhibitor, single point] | –
43 | CCOC(=O)c1c(C=O)c(C)n(Cc2ccccc2)c1C | – | inactive: -15.6%
44 | CC(C)CCNC(=O)COc1ccc(C(=O)c2ccccc2)cc1 | inconclusive: 23.1 µM [inhibitor, partial curve] | –
45 | CC(C)Oc1cccc(-c2cc(C(=O)NN3CCOCC3)c3ccccc3n2)c1 | – | inactive: -12.2%
46 | COc1ccccc1NC(=O)C1=C(C)N(c2ccccc2)C(=S)NC1c1cccc(C(F)(F)F)c1 (stereo not drawn) | inconclusive: 20.6 µM [inhibitor, partial curve, poor fit] | –

Row | SMILES | Potency | activity change, negative = inhibition
47 | Cc1cccc(NC(=O)COC(=O)c2ccc(C)c(S(=O)(=O)N3CCCCC3)c2)c1 | inconclusive: 25.9 µM [inhibitor, partial curve, poor fit] | –
48 | CN1C(=O)C(C)(C)c2cc(S(=O)(=O)N3CCCC(C(=O)NCc4ccc(Cl)cc4)C3)ccc21 (stereo not drawn) | active: 14.6 µM | –
49 | Brc1cc2c(cc1/C=N/Nc1nc3ccccc3s1)OCO2 | inconclusive: 7.31 µM [activator, partial curve] | –
50 | CCSc1nnc(Nc2ccccc2)s1 | inconclusive: 13 µM [activator, partial curve] | –
51 | O=C(Nc1nnc(SCC(=O)N2CCCc3ccccc32)s1)c1cccc2ccccc12 | – | inactive: 2.12%
52 | NS(=O)(=O)c1ccc(N/C=C/C(=O)c2ccc(Br)cc2)cc1 | inconclusive: 14.6 µM [activator, partial curve] | –
53 | COc1ccc(N(CCCN2C(=O)c3cccc4cccc(c34)C2=O)C(=O)c2cccnc2)cc1 | inconclusive: 29.1 µM [inhibitor, single point] | –
54 | CC(=O)c1c(C)n(CC(=O)NCc2ccc3c(c2)OCO3)c2ccccc12 | inconclusive: 14.6 µM [inhibitor, partial curve] | –
55 | CCCCCCn1c(=O)[nH]c2nc3cc(N)c(C)cc3nc2c1=O | inconclusive: 4.61 µM [inhibitor, partial curve, poor fit] | –
56 | NNC(=O)CN1CCCc2ccccc21 | inconclusive: 10.3 µM [activator, partial curve] | –
57 | CCN(CC)C(=O)c1sc2nc(N3CCOCC3)c3c(c2c1N)CCCC3 | active: 6.51 µM | –
58 | CC(=O)Nc1cccc(OCC(=O)/C=C2\N(C)c3ccccc3C2(C)C)c1 | active: 18.3 µM | –
59 | CCc1ccc2oc(=O)cc(CN3CCN(CCO)CC3)c2c1 | – | inactive: 15.4%
60 | CC(=O)c1sc(NC(=O)c2ccc(Cl)cc2)nc1C | inconclusive: 2.59 µM [activator, full curve] | –
61 | CCn1ncc(C(=O)Nc2cc(C)on2)c1C | inconclusive: 29.1 µM [activator, partial curve, poor fit] | –
62 | Oc1cccc(/C=N/N2CCCCC2)c1O | inconclusive: 18.3 µM [activator, partial curve] | –
63 | CCN(CC)C(=O)Oc1ccc2oc(=O)cc(-c3cc4cccc(OC)c4o3)c2c1 | inconclusive: 6.51 µM [inhibitor, partial curve, poor fit] | –
64 | O=C(OCc1c(-c2ccccc2)ncc2ccccc12)c1ccccc1C(F)(F)F | inconclusive: 29.1 µM [inhibitor, single point] | –
65 | CCCC(=O)NC(=S)Nc1ccc(Cl)cn1 | inconclusive: 16.4 µM [activator, single point] | –
66 | CC1CCCN(c2nc(NCc3ccco3)nc(N)c2[N+](=O)[O-])C1 (stereo not drawn) | – | inactive: -25.4%
67 | CC1Cc2cc(S(=O)(=O)N3CCC(C(=O)N4CCN(c5ccccc5F)CC4)CC3)ccc2N1C(=O)C1CC1 (stereo not drawn) | inconclusive: 23.1 µM [inhibitor, partial curve] | –
68 | O=C(NCCCN1CCCC1)c1cc2c(Cl)nc3ccccc3c2s1 | inconclusive: 6.51 µM [activator, partial curve, poor fit] | –
